The record followed here is PubChem BioAssay AID1487 (National Center for Advancing Translational Sciences (NCATS), 2009).

Some of the results follow. Shown are side measurements of this screen, not its main read-out; they come without a call. Most of these compounds were active or inconclusive in the main read-out, so they are no random draw. Words in brackets tell the shape of the fitted curve; partial curves, single points and poor fits give uncertain potencies.

The test is described as follows: qHTS Assay for Modulators of Lamin A Splicing. The following applies: HeLa LMNA splicing GFP/RFP minigene ratio, 48 h. The gist of the method: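 S3 HeLa cells stably expressing lamin A-EGFP splicing minigene plus DsRed2, 600 cells/well, 48 h compound exposure at 37C. Laser-scanning cytometry; analysed as GFP (500-530 nm)/RFP (575-640 nm) total intensity ratio; 0.5% DMSO vehicle.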

Where [1] appears, read: measured here: GFP splicing reporter channel.
The mark [2] stands for this setting: measured here: RFP viability control channel.

Take `CCOC(=O)N1CCN(C(=O)CSc2ccc3nnc(-c4ccccn4)n3n2)CC1`: the AC50 by setting is: under setting [1], 0.355 µM [falling, full curve, poor fit]; under setting [2], 0.00316 µM [falling, full curve, poor fit].

For `CC(=O)NC(c1ccco1)c1ccc2cccnc2c1O` (configuration not stated), the AC50 under setting [2] was 11.2 µM [rising, partial curve].

As to `Cc1ccccc1-c1nnn(CC(=O)c2ccc(S(=O)(=O)N3CCCC3)cc2)n1`, the AC50 was 11.2 µM [rising, partial curve, poor fit] under setting [1] and 11.2 µM [rising, partial curve] under setting [2].

Turning to `COc1ccc(C2C=C(Nc3ccccc3)C(=O)N2c2ccccc2)cc1OC` (configuration not stated), the AC50 under setting [2] is 0.0891 µM [rising, full curve, poor fit].

With `CC(O)c1n(C)c(Cl)c[n+]1C` (configuration not stated), the AC50 under setting [2] is 28.2 µM [falling, single point].

With `CS(=O)(=O)c1cnc(-c2ccccc2)nc1-c1ccc(Cl)c(Cl)c1`, the AC50 was 22.4 µM [falling, single point] under setting [1] and 20 µM [falling, single point] under setting [2].

For `Cn1c(=O)cc(OCCCC(=O)NCc2ccco2)c2ccccc21`, the concentration at half-maximal activity (AC50) under setting [2] is 12.6 µM [rising, single point].

On to `CC(C)(C)NC(=O)COC(=O)c1ccc(S(=O)(=O)N2CCCCCC2)cc1`, for which the AC50 under setting [2] is 0.178 µM [falling, full curve, poor fit].

Consider `Cc1ccc(N2CCn3c2nc2c3c(=O)n(Cc3cccc(Cl)c3)c(=O)n2C)cc1C`, for which the AC50 reads like this: under setting [1], 0.794 µM [falling, full curve, poor fit]; under setting [2], 0.126 µM [falling, full curve, poor fit].

On to `CC(C)c1ccc(NC(=O)CN2C(=O)C3(SCC(=O)N3c3ccc(F)cc3)c3ccccc32)cc1` (configuration not stated), for which the AC50 under setting [1] was 1.78 µM [rising, partial curve].

For the molecule `O=C(NCc1ccccn1)c1nc(-c2ccc(C(F)(F)F)cc2)no1`, the AC50 under setting [1] is 0.0794 µM [falling, full curve, poor fit].

Consider `CCCOc1ccc(CC2C(=O)Nc3ccc(Br)cc32)cc1` (configuration not stated), for which the AC50 is, setting by setting: under setting [1], 25.1 µM [falling, single point]; under setting [2], 25.1 µM [falling, single point].

Consider `O=C(Cn1nnc(-c2ccccc2)n1)N/N=C/c1cccc([N+](=O)[O-])c1`, for which the AC50 reads like this: under setting [1], 12.6 µM [rising, single point]; under setting [2], 17.8 µM [rising, single point].

Turning to `CC(C)CC(NC(=O)c1ccc(Cl)cc1)C(=O)OCC(=O)c1ccc2c(c1)NC(=O)CO2` (configuration not stated), the concentration at half-maximal activity (AC50) runs as follows: under setting [1], 25.1 µM [falling, single point]; under setting [2], 22.4 µM [falling, partial curve].

Take `CCN(C(=O)CSc1nc2ccccc2nc1Cc1ccccc1OC)c1ccccc1`: the AC50 under setting [2] is 22.4 µM [rising, partial curve].

As to `CCOc1ccccc1CNC(=O)CCc1cn(C)c2ccccc12`, the AC50 reads like this: under setting [1], 31.6 µM [falling, partial curve, poor fit]; under setting [2], 0.00316 µM [falling, full curve, poor fit].

On to `CCSC1=NC2(CCN(C(=O)NC3CCCCC3)CC2)N=C1c1ccc(OC)cc1`, for which the AC50 is, setting by setting: under setting [1], 0.0112 µM [falling, full curve, poor fit]; under setting [2], 0.0112 µM [falling, full curve, poor fit].

As to `Cc1sc2nc(SCC(=O)NCCOCCO)n(C)c(=O)c2c1C`, the AC50 reads like this: under setting [1], 14.1 µM [rising, single point]; under setting [2], 15.8 µM [rising, single point].

As for `COC(=O)c1ccc(CSc2nnc(C)n2N)o1`, the half-maximal activity concentration (AC50) under setting [1] is 0.0251 µM [falling, full curve, poor fit].

For the molecule `O=C(Cn1cnc2ccccc21)NCc1ccccc1`, the AC50 under setting [2] is 31.6 µM [rising, single point].

In the case of `COc1ccc(CN(C(=O)c2cc3ccccc3oc2=O)C2CCCCC2)cc1OC`, the AC50 under setting [2] was 35.5 µM [rising, single point].

Take `Cc1cccc(N2CCN(C(=O)CS(=O)(=O)Cc3nc(-c4ccccc4F)oc3C)CC2C)c1` (configuration not stated): the concentration at half-maximal activity (AC50) under setting [2] was 2.24 µM [rising, full curve, poor fit].

On to `COc1ccccc1CNc1ccc2nnc(CCNC(=O)c3ccc(C)cc3)n2n1`, for which the concentration at half-maximal activity (AC50) under setting [2] is 0.00316 µM [rising, full curve, poor fit].

Regarding `C[C@]1(OC(=O)/C=C\c2ccccc2)C[C@@H](O)[C@@]2(O)C=CO[C@@H](O[C@H]3O[C@@H](CO)[C@@H](O)[C@@H](O)[C@@H]3O)[C@H]21`, the AC50 under setting [1] was 14.1 µM [falling, single point].

Consider `CCCCOc1ccc(/C=C/C(=O)OCC(=O)N2CC(=O)Nc3ccccc32)cc1OCC`, for which the AC50 under setting [2] is 10 µM [rising, single point].

On to `Cc1ccsc1/C=N/n1c(-c2ccncc2)n[nH]c1=S`, for which the AC50 under setting [1] is 3.98 µM [rising, partial curve, poor fit] and the half-maximal activity concentration (AC50) under setting [2] is 28.2 µM [rising, single point].

Turning to `Oc1cccc(/C=N/Nc2cc(N3CCCC3)nc(N3CCCC3)n2)c1`, the half-maximal activity concentration (AC50) under setting [2] was 12.6 µM [rising, partial curve, poor fit].

As to `Cc1ccc(NC(=O)C2CCC(CNS(=O)(=O)c3cccs3)CC2)cc1C` (configuration not stated), the AC50 under setting [2] was 0.0447 µM [falling, full curve].

Turning to `NS(=O)(=O)c1ccc(NS(=O)(=O)/C=C/c2ccccc2)cc1`, the concentration at half-maximal activity (AC50) under setting [2] was 12.6 µM [rising, single point].

As for `CC(=O)N1CCc2ccc(S(=O)(=O)N3CC(C)OC(C)C3)cc21` (configuration not stated), the AC50 under setting [2] was 17.8 µM [rising, partial curve, poor fit].

Consider `Cc1cc(C)c(S(=O)(=O)NCC(c2ccco2)S(=O)(=O)c2ccccc2)c(C)c1` (configuration not stated), for which the AC50 under setting [1] is 0.00316 µM [rising, full curve, poor fit].

For the molecule `COC(=O)c1cc(NC(=S)NCc2ccc(Cl)cc2)cc(C(=O)OC)c1`, the AC50 under setting [1] was 12.6 µM [rising, single point] and the concentration at half-maximal activity (AC50) under setting [2] is 17.8 µM [rising, partial curve].

For the molecule `CCCCn1c(SCC(=O)Nc2ccc3c(c2)OCO3)nc2c1c(=O)n(C)c(=O)n2C`, the AC50 is 3.98 µM [rising, full curve] under setting [1] and 11.2 µM [rising, partial curve] under setting [2].

Regarding `Cn1cnnc1SCCOc1ccc(Cl)cc1`, the half-maximal activity concentration (AC50) under setting [2] is 0.0398 µM [falling, full curve].
